PubChem BioAssay AID1508588, Peter MacCallum Cancer Centre | 2020
Test: 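Knock-downs boosting vemurafenib effects on melanoma cell growth or lactate release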 (primary screen). Cells: human WM266.4 melanoma cells (BRAF V600 mutant). Reagent: siRNA pool against human genes, 40 nM. Duration: 96 h from transfection to read-out. Treatment: vemurafenib 300 nM (about IC25), added 48 h after transfection, for 48 h; comparison arm got DMSO vehicle only. Read-out: 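Cell gain (DAPI nuclei at end minus before drug, mean of two replicates) and medium lactate by absorbance per cell, both as ratio to non-targeting siRNA, also grouped into fold-change classes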. Scale: cell gain with vemurafenib: higher = more cell gain than with non-targeting siRNA; lactate per cell with vemurafenib: higher = more lactate made per cell. Call rule: 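Enhancement is called by pairing each knock-down's vehicle-arm and drug-arm fold-change classes for viability or glycolysis; which class combinations qualify is not given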. Calls: active = enhances vemurafenib effect; inactive = no enhancement seen.
This is an unselected part of about 18,000 reagents tested. 790 of all reagents (4.4%) were called active. 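Calls rest on a combination of fold-change classes in drug and vehicle arms, not all shown here.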 A reagent listed more than once was tested more than once; the source does not tell the runs apart.

Gene | cell gain with vemurafenib | lactate per cell with vemurafenib | call
RIN2 (Ras and Rab interactor 2) | 0.84 | 0.58 | inactive
PLCH2 (phospholipase C eta 2) | 0.39 | 1.75 | inactive
CYTH1 (cytohesin 1) | 0.77 | 1.36 | inactive
UBXN6 (UBX domain protein 6) | 0.11 | 1.84 | inactive
SCO2 (synthesis of cytochrome C oxidase 2) | 0.64 | 0.62 | inactive
BRF2 (BRF2 general transcription factor IIIB subunit) | 1 | 1.04 | inactive
CEP162 (centrosomal protein 162) | 1.04 | 0.92 | inactive
OSBPL3 (oxysterol binding protein like 3) | 0.76 | 1.06 | inactive
RILP (Rab interacting lysosomal protein) | 0.29 | 1.86 | inactive
CDC5L (cell division cycle 5 like) | 0.27 | 1.69 | inactive
C19orf44 (chromosome 19 open reading frame 44) | 0.37 | 1.32 | inactive
TUBB6 (tubulin beta 6 class V) | 0.87 | 1.34 | inactive
DNAI1 (dynein axonemal intermediate chain 1) | 0.72 | 1.25 | inactive
TVP23C (trans-golgi network vesicle protein 23 homolog C) | 0.01 | 3.26 | inactive
RNF19B (ring finger protein 19B) | 1.01 | 0.96 | inactive
TIMM8B (translocase of inner mitochondrial membrane 8 homolog B) | 0.55 | 0.45 | active
DCAF13 (DDB1 and CUL4 associated factor 13) | 1.02 | 0.73 | inactive
TMEM50B (transmembrane protein 50B) | 0.86 | 0.68 | inactive
OR2A1 (olfactory receptor family 2 subfamily A member 1) | 0.74 | 0.6 | inactive
PAM (peptidylglycine alpha-amidating monooxygenase) | 0.5 | 2.01 | inactive
ZNF830 (zinc finger protein 830) | 0.26 | 1.4 | inactive
HTT (huntingtin) | 0.49 | 1.73 | inactive
OTX1 (orthodenticle homeobox 1) | 0.74 | 0.82 | inactive
SNPH (syntaphilin) | 0.41 | 0.74 | inactive
DRC3 (dynein regulatory complex subunit 3) | 0.67 | 0.63 | active
LENG9 (leukocyte receptor cluster member 9) | 0.64 | 1.06 | inactive
AQP8 (aquaporin 8) | 0.47 | 1.23 | inactive
STKLD1 (serine/threonine kinase like domain containing 1) | 0.76 | 0.82 | inactive
PIGM (phosphatidylinositol glycan anchor biosynthesis class M) | 0.52 | 0.99 | inactive
TGM2 (transglutaminase 2) | 1.28 | 0.48 | inactive
C12orf71 (chromosome 12 open reading frame 71) | 0.77 | 0.8 | inactive
GOT1L1 (glutamic-oxaloacetic transaminase 1 like 1) | 0.93 | 0.44 | active
SETDB2 (SET domain bifurcated histone lysine methyltransferase 2) | 0.8 | 1.16 | inactive
SLC39A3 | 0.99 | 0.68 | inactive
DUOXA1 (dual oxidase maturation factor 1) | 0.35 | 1.19 | inactive
SDHC (succinate dehydrogenase complex subunit C) | 0.7 | 1.12 | inactive
ARL9 (ARF like GTPase 9) | 0.47 | 0.44 | inactive
NEU3 (neuraminidase 3) | 0.51 | 0.76 | inactive
INPP5E (inositol polyphosphate-5-phosphatase E) | 0.39 | 0.53 | inactive
NIF3L1 (NGG1 interacting factor 3 like 1) | 0.27 | 1.33 | inactive
DLG1 (discs large MAGUK scaffold protein 1) | 0.78 | 0.38 | inactive
DLG1 (discs large MAGUK scaffold protein 1) | 0.53 | 0.57 | inactive
BCAR1 (BCAR1 scaffold protein, Cas family member) | 0.13 | -0.2 | active
TGM1 (transglutaminase 1) | 0.43 | 1.77 | inactive
WASHC3 (WASH complex subunit 3) | 0.46 | 1.52 | inactive
RNPS1 (RNA binding protein with serine rich domain 1) | 0.02 | 3.14 | inactive
CDC37 (cell division cycle 37, HSP90 cochaperone) | 1.19 | 1.08 | inactive
GNE | 1.09 | 0.96 | inactive
UQCC1 (ubiquinol-cytochrome c reductase complex assembly factor 1) | 0.27 | 1.38 | inactive
SCAPER (S-phase cyclin A associated protein in the ER) | 0.91 | 0.78 | inactive
ELFN2 | 0.22 | 1.72 | inactive
EML1 (EMAP like 1) | 0.94 | 1.02 | inactive
RHO (rhodopsin) | 0.46 | 0.41 | active
TUFM (Tu translation elongation factor, mitochondrial) | 0.48 | 1.86 | inactive
EEPD1 | 0.59 | 0.59 | inactive
POLI (DNA polymerase iota) | 1.13 | 0.65 | inactive
DPM3 (dolichyl-phosphate mannosyltransferase subunit 3, regulatory) | 0.71 | 1.12 | inactive
GDPD3 (glycerophosphodiester phosphodiesterase domain containing 3) | 0.74 | 0.54 | inactive
DDB2 (damage specific DNA binding protein 2) | 0.95 | 0.65 | inactive
SMARCA2 | 0.76 | 0.47 | inactive
ZNF804B (zinc finger protein 804B) | 1.03 | 0.6 | inactive
KRTAP19-3 (keratin associated protein 19-3) | 0.4 | 1.09 | inactive
KCNQ3 (potassium voltage-gated channel subfamily Q member 3) | 0.63 | 0.96 | inactive
ZNF271P (zinc finger protein 271, pseudogene) | 0.44 | 0.28 | active
RBM38 (RNA binding motif protein 38) | 1 | 1.54 | inactive
AIDA (axin interactor, dorsalization associated) | 0.94 | 0.94 | inactive
MN1 (MN1 proto-oncogene, transcriptional regulator) | 0.9 | 0.28 | inactive
JAK3 (Janus kinase 3) | 0.66 | 1 | inactive
TAS2R39 (taste 2 receptor member 39) | 0.68 | 1.12 | inactive
RPL28 (ribosomal protein L28) | 0.12 | 1.61 | inactive
THSD7B (thrombospondin type 1 domain containing 7B) | 0.75 | 1.1 | inactive
PDHX (pyruvate dehydrogenase complex component X) | 0.68 | 0.55 | inactive
C4BPA (complement component 4 binding protein alpha) | 0.52 | 1.69 | inactive
RUMY4 (RUMY family member 4) | 0.95 | 0.76 | inactive
RGN (regucalcin) | 0.31 | 0.6 | inactive
NARF (nuclear prelamin A recognition factor) | 0.69 | 0.62 | inactive
HTR2C (5-hydroxytryptamine receptor 2C) | 0.45 | 1.34 | inactive
HNRNPA3 (heterogeneous nuclear ribonucleoprotein A3) | 0.83 | 0.66 | inactive
RNF112 (ring finger protein 112) | 1.1 | 0.75 | inactive
PRORSD1P | 0.34 | 0.58 | inactive
BOLA3 (bolA family member 3) | 0.73 | 0.54 | inactive
ZFP69B (ZFP69 zinc finger protein B) | 0.79 | 1.18 | inactive
SPATA25 (spermatogenesis associated 25) | 0.69 | 0.54 | inactive
PTBP1 (polypyrimidine tract binding protein 1) | 1.29 | 0.7 | inactive

A run of entries taken from the entries so far:
Gene | cell gain with vemurafenib | lactate per cell with vemurafenib | call
SLC39A3 | 0.99 | 0.68 | inactive
DUOXA1 (dual oxidase maturation factor 1) | 0.35 | 1.19 | inactive
SDHC (succinate dehydrogenase complex subunit C) | 0.7 | 1.12 | inactive
ARL9 (ARF like GTPase 9) | 0.47 | 0.44 | inactive
NEU3 (neuraminidase 3) | 0.51 | 0.76 | inactive
